Source: PubChem BioAssay AID1117319 (Southern Research Institute, 2015)
About 1,500 (0.58%) of roughly 260,000 compounds were called active. The inconclusive results got no clear call from the source; some entries with a clear call stand among them for comparison.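 The calls were made as follows: active = inhibition above a set limit at one or more doses, reproduced on every date tested; inconclusive = results disagree between test dates, or hit never tested in dose response; inactive = the rest.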

By UniProt entry, the sequences of proteins in these tests, tags left out. Where a name states a change or a piece, a line headed by the entry shows the natural chain unless it says otherwise.
UniProt P69720: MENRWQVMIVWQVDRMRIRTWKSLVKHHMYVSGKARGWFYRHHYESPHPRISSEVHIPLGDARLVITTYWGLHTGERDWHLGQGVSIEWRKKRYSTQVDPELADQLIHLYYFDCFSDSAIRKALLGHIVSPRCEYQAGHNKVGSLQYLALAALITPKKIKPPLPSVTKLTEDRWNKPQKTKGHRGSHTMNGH
UniProt P69721: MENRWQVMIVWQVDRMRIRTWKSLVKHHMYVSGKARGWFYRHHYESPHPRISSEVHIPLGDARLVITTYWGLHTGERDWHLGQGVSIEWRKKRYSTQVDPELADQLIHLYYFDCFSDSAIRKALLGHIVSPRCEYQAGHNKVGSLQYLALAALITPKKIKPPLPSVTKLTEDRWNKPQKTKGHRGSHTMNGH
UniProt P69722: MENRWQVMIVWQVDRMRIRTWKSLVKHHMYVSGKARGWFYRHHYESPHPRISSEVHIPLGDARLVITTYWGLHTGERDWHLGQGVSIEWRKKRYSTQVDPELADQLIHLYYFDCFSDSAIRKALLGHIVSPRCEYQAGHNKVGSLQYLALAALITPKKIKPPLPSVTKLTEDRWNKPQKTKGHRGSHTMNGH
UniProt P69723: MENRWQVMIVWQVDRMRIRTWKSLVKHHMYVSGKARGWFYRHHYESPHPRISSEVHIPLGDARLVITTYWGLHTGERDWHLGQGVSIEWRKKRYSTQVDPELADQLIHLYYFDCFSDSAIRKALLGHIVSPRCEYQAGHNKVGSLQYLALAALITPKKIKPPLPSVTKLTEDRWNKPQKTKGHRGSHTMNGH
UniProt Q9HC16: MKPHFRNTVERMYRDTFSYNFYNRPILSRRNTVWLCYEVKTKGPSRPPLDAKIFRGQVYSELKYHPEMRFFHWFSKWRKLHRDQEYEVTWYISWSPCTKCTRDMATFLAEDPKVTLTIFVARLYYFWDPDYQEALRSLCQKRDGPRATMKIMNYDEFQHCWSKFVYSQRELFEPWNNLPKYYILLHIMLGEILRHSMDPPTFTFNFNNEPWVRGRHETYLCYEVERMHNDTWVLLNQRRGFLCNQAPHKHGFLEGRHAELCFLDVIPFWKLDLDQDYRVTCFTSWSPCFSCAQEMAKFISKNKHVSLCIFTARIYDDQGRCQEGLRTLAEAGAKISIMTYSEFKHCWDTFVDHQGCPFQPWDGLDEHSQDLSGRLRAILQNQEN

What follows are compounds tested against Virion infectivity factor (Human immunodeficiency virus type 1 group M subtype B (isolate BH10)) + Virion infectivity factor (Human immunodeficiency virus type 1 group M subtype B (isolate BRU/LAI)) + Virion infectivity factor (Human immunodeficiency virus type 1 group M subtype B (isolate PCV12)) + Virion infectivity factor (Human immunodeficiency virus type 1 group M subtype B (isolate HXB2)) + DNA dC->dU-editing enzyme APOBEC-3G (Homo sapiens) (UniProt P69720+P69721+P69722+P69723+Q9HC16) (assay: inhibitors of Vif binding to APOBEC3G peptide, primary screen, biochemical, TR-FRET, GST-Vif 1-94, biotin-A3G peptide, dose response retest (AID 1117319;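 also: Vif residues 1-94 fused to GST binding biotinylated APOBEC3G peptide 110-148; 0% = full assay without inhibitor and 100% = GST in place of GST-Vif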)). Conditions: stronger effect = higher value.

SMILES	inhibition
COc1ccc(NC2CCN(C3CC(=O)N(c4ccc(F)c(Cl)c4)C3=O)CC2)cc1 (stereo not drawn)	inconclusive: 60.5%
CCOC(=O)C1=C(O)/C(=C\c2sccc2C)N=C1C	inactive: 0.95%
Cc1ccccc1NC(=O)CS(=O)(=O)c1cn(CC(=O)N2CCOCC2)c2ccccc12	inconclusive: 45.3%
O=C(CN1CCN(c2ccc(O)cc2)CC1)NC(=O)NCc1ccco1	inconclusive: 54.2%
CCOc1ccccc1CN(Cc1ccco1)S(=O)(=O)c1ccc(-n2cnnn2)c(OC)c1	inconclusive: 44.4%
CCOC(=O)C1=NNC2(CC(=O)N(c3cccc(C)c3)C2=O)C1 (stereo not drawn)	inconclusive: 45.1%
COC(=O)C(Cc1ccc(O)cc1)NC(=O)CCC(=O)Nc1ccc(S(N)(=O)=O)cc1 (stereo not drawn)	inconclusive: 56.7%
CCOc1ccc(N2C(=O)CNC2=S)cc1	inconclusive: 39.7%
COc1ccc(NC(=O)CN(C)S(=O)(=O)c2ccc3c(c2)NC(=O)CS3)cc1	inconclusive: 39%
O=C(NC1CCC(O)CC1)c1ccc(S(=O)(=O)NCc2ccco2)cc1 (stereo not drawn)	inconclusive: 33.6%
CCOC(=O)c1ccc(NC(=O)CSc2nnc(NC(=O)c3ccc(S(=O)(=O)N4CCOCC4)cc3)s2)cc1	inconclusive: 53.4%
CCN(c1ccccc1)S(=O)(=O)c1ccc2[nH]cc(C(=O)NCCOC)c(=O)c2c1	inconclusive: 48.1%
Cc1ccc(S(=O)(=O)Nc2ccc(O)c3ncccc23)cc1	inconclusive: 47.1%
CCn1c(SCC(=O)c2c(N)n(C3CC3)c(=O)[nH]c2=O)nc2cc(S(N)(=O)=O)ccc21	inconclusive: 61.4%
COC(=O)/C(C(C)=O)=C(/C=C/C=C/N(C)C)N(C)C	inactive: 16.1%
CCn1nnnc1SCC(=O)Nc1nc(-c2cccs2)cs1	inconclusive: 33.5%
CC(C)CCNC(=O)[C@H](CC(C)C)NC(=O)[C@H]1O[C@@H]1C(=O)O	inconclusive: 54.5%
Cc1ccc2c(c1)nnn2C1CCN(S(=O)(=O)c2ccc(C(=O)N(C)C)cc2)CC1	inconclusive: 59.1%
O=c1c2ccccc2n2c(-c3ccc(F)cc3)nnc2n1Cc1ccccc1	inconclusive: 43.2%
O=C(COc1ncnc2ccccc12)Nc1cc([N+](=O)[O-])ccc1F	inconclusive: 49%
c1ccc(-n2cnnc2SCc2cn3cccnc3n2)cc1	inconclusive: 54.2%
COc1ccc(N(Cc2cc3cc(OC)ccc3[nH]c2=O)C(=O)C2CCCO2)cc1 (stereo not drawn)	inconclusive: 36.2%
CCOC(=O)c1c(/N=C/C2=C(O)CC(C)(C)CC2=O)sc(C)c1C	inconclusive: 46.1%

Three structures from above, ordered by SMILES length, high to low:
SMILES	inhibition
CCN(c1ccccc1)S(=O)(=O)c1ccc2[nH]cc(C(=O)NCCOC)c(=O)c2c1	inconclusive: 48.1%
COc1ccc(NC2CCN(C3CC(=O)N(c4ccc(F)c(Cl)c4)C3=O)CC2)cc1 (stereo not drawn)	inconclusive: 60.5%
COC(=O)/C(C(C)=O)=C(/C=C/C=C/N(C)C)N(C)C	inactive: 16.1%
